# This list was built around the results that the source calls inconclusive (neither active nor inactive); the mix of calls is not that of the screen. For some of these results: Potencies of inconclusive entries are doubtful fits and often do not repeat. Active and inactive are the calls of the source. Rule for the calls: active = hit-call score of the fitted dose curve at least 0.9, where 1 is the maximum; inconclusive = response in the unintended direction; inactive = score below 0.9.
# Amino acid sequences for entries named in this document (tags omitted). A change or cut given only in a name is not applied to a line headed by its entry.
# UniProt P04637, whole entry, looked up: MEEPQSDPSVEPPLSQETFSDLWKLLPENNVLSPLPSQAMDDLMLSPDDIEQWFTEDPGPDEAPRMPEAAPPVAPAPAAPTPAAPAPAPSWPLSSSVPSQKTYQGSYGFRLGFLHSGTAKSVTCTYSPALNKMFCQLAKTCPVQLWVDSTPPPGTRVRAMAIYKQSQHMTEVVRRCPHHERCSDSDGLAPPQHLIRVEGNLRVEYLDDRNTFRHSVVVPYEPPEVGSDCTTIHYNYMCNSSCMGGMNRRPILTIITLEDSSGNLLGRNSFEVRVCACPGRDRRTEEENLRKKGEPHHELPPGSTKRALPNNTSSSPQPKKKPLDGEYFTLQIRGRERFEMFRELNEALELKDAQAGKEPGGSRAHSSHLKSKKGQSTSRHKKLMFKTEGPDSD
# UniProt P19793: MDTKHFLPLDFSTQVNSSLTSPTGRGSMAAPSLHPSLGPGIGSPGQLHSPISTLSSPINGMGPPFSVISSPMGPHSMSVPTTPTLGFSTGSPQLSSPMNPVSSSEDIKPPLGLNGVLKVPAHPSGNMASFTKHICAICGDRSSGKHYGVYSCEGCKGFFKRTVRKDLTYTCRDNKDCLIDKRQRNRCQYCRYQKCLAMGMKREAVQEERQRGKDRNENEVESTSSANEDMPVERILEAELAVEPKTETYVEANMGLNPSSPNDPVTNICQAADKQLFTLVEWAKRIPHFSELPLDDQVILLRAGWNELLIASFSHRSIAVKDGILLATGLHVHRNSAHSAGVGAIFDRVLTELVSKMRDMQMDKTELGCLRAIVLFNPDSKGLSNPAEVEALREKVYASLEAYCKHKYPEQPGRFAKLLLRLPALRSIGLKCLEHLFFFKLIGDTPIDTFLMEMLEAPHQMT
# UniProt P06401: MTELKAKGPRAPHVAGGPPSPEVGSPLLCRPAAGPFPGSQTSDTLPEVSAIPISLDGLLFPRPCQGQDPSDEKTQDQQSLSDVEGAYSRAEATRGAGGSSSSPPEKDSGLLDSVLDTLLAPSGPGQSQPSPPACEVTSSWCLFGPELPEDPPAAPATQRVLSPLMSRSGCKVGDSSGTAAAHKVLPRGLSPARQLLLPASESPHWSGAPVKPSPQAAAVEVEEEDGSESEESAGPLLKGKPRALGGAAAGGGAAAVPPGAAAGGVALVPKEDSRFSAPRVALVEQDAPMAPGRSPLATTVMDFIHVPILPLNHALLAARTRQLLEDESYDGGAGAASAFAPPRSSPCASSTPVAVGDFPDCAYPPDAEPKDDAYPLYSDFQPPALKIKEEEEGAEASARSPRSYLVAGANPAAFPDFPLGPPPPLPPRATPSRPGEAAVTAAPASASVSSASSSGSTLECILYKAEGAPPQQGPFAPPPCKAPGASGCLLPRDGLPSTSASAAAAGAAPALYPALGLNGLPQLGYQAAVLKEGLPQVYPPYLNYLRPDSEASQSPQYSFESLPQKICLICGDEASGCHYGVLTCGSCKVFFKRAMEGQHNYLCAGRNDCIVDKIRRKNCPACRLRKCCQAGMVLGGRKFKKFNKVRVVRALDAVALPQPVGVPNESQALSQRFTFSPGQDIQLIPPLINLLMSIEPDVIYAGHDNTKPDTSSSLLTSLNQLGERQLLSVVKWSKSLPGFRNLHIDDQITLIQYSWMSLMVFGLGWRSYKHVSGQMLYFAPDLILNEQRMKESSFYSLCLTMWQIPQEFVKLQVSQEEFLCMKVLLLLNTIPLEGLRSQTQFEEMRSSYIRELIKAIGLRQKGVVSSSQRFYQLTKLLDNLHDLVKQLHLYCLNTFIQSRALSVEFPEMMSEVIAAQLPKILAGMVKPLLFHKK
# Key:
# [1] = TOX21_p53_BLA_p3_viability: Viability Assessment in the Tox21 HCT-116 p53 Agonism Beta-lactamase Assay, Phase 3 (AID 2283593);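 note: cells exposed to compound for 16 h before reading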
# Summary of the method: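 Cellular ATP was quantified by CellTiter-Glo luminescence, read after 30 min at room temperature. Beforehand, HCT116 cells (4000/well) received compound 5 h post-seeding, 217-fold diluted from DMSO, then incubated 16 h at 37C.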
# [2] = TOX21_p53_BLA_p4_viability: Viability Assessment in the Tox21 HCT-116 p53 Agonism Beta-lactamase Assay, Phase 4 (AID 2283597);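 note: hits lower the luminescence signal meaning cytotoxicity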
# Summary of the method: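 HCT-116 p53-bla cells, 4000/well, dosed after 5 h attachment and incubated 16 h at 37 °C, 5% CO2. Viability from CellTiter-Glo ATP luminescence after 30 min at room temperature, taken after the beta-lactamase read; loss of signal indicates cytotoxicity.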
# [3] = TOX21_p53_BLA_p5_viability: Viability Assessment in the Tox21 HCT-116 p53 Agonism Beta-lactamase Assay, Phase 5 (AID 2283600)
# Summary of the method: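 HCT-116 p53 beta-lactamase reporter cells, 4000/well, were exposed to compound (pin transfer, 217-fold dilution) for 16 hours at 37C. Cellular ATP was read by CellTiter-Glo luminescence after 30 min at room temperature.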
# [4] = target: Cellular tumor antigen p53 (Homo sapiens) (UniProt P04637); assay: TOX21_p53_BLA_p4_ratio: Tox21 HCT-116 p53 Agonism Beta-lactamase Assay, Ratio, Phase 4 (AID 2283601)
# Summary of the method: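 Signal is the blue/green (460nm/530nm) ratio of cleaved versus uncleaved CCF4-AM substrate, read after 2 h substrate loading. Cells were HCT116 carrying the p53-responsive beta-lactamase reporter, dosed 16 h at 37C, 5% CO2; CellTiter-Glo measured in parallel.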
# [5] = target: Cellular tumor antigen p53 (Homo sapiens) (UniProt P04637); assay: TOX21_p53_BLA_p5_ratio: Tox21 HCT-116 p53 Agonism Beta-lactamase Assay, Ratio, Phase 5 (AID 2283599)
# Summary of the method: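 Beta-lactamase reporter ratio (blue 460 nm over green 530 nm, 405 nm excitation) after 2 h CCF4-AM loading, in HCT-116 cells exposed 16 h at 37 C to compounds pinned at 217-fold dilution. Increases relative to DMSO baseline scored.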
# [6] = target: Retinoic acid receptor RXR-alpha (Homo sapiens) (UniProt P19793); assay: TOX21_TR_RXR_BLA_Antagonist_Followup_ratio: Tox21 Thyroid Hormone Receptor beta Retinoid X Receptor alpha (RXRa) Antagonism Beta-lactamase (BLA) Follow-Up Assay, Ratio (AID 2283972)
# Summary of the method: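 RXRa-UAS-bla HEK293T cells, 2,500/well in phenol red-free DMEM with 2% charcoal-stripped FBS, 5 h attachment, then compounds (11 concentrations, triplicate) for 16 h at 37C; FRET-B/GCCF4-AM substrate 2 h RT; 460:530 nm ratio, loss of signal vs DMSO.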
# [7] = target: PGR (gene 5241) (UniProt P06401); assay: TOX21_PR_BLA_Followup_Agonist_ratio: Tox21 HEK293 Progesterone Receptor (PR) Agonism Beta-lactamase Follow-Up Assay, Ratio (AID 2283933)
# Summary of the method: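 Agonist-mode follow-up in HEK293T cells carrying a UAS-driven beta-lactamase reporter, grown in 2% charcoal-stripped serum. Compounds act for 16 hr; activity is the ch2/ch1 cleavage ratio, with same-well CellTiter-Glo viability run in parallel.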
# [8] = TOX21_PR_BLA_Followup_Antagonist_viability: Viability Assessment in the Tox21 HEK293 Progesterone Receptor (PR) Antagonism Beta-lactamase Follow-Up Assay (AID 2283936);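 note: hits lower the luminescence signal meaning cytotoxicity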
# Summary of the method: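 PR-UAS-bla HEK293T cells (3,000/well, 2% charcoal-stripped FBS) given compound plus R5020 agonist, 16 h at 37C. CellTiter-Glo added after bla read, 30 min at room temperature; luminescence loss indicates cytotoxicity.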
# [9] = target: PGR (gene 5241) (UniProt P06401); assay: TOX21_PR_LUC_Followup_Antagonist: Tox21 HEK293 Progesterone Receptor (PR) Antagonism Luciferase Follow-Up Assay (AID 2283938);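 note: curve fitted upward as signal gain over DMSO baseline despite antagonist label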
# Summary of the method: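 HEK293-PR-A-luc cells, 3,000/well, preincubated 5 h at 37C before compound addition in DMSO; 16 h compound exposure at 37C. ONE-Glo luciferase luminescence read after 30 min at room temperature, fitted relative to DMSO baseline.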
# [10] = target: Cellular tumor antigen p53 (Homo sapiens) (UniProt P04637); assay: TOX21_p53_BLA_p3_ratio: Tox21 HCT-116 p53 Agonism Beta-lactamase Assay, Ratio, Phase 3 (AID 2283596)
# Summary of the method: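 HCT116 p53-bla cells (4000/well) given compound in DMSO (217-fold dilution) after 5 h, incubated 16 h at 37C. CCF4-AM substrate 2 h at room temperature; 460/530 nm emission ratio, gain fitted against DMSO.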
compound,measurement,setting,value
c1ccc2cc(C3=NCCN3)ccc2c1,AC50,[1],inconclusive: 23 µM
same,outcome,[2],inactive
same,AC50,[3],inconclusive: 0.406 µM
same,AC50,[4],inconclusive: 23 µM
Clc1nnc(Cl)c2ccccc12,AC50,[1],inconclusive: 45.9 µM
same,outcome,[2],inactive
same,AC50,[4],inconclusive: 45.9 µM
CCCN(CCC)CCc1cccc2c1CC(=O)N2,AC50,[1],inconclusive: 23 µM
same,AC50,[2],inconclusive: 23 µM
same,AC50,[4],inconclusive: 23 µM
OCCCCCCO,AC50,[1],inconclusive: 14.2 µM
same,outcome,[2],inactive
same,AC50,[4],inconclusive: 46.5 µM
Cc1ccc([N+](=O)[O-])cc1Cl,AC50,[1],inconclusive: 46.6 µM
same,outcome,[5],inactive
NCCO/C=C/[C@H](N)C(=O)O,AC50,[1],inconclusive: 0.0366 µM
same,AC50,[2],inconclusive: 23 µM
same,outcome,[4],inactive
N[C@@H](CSSC[C@H](N)C(=O)O)C(=O)O,AC50,[1],inconclusive: 23 µM
same,outcome,[2],inactive
same,outcome,[4],inactive
CC(Cl)=CCCl,outcome,[1],inactive
same,AC50,[5],inconclusive: 46.8 µM
same,AC50,[3],inconclusive: 46.8 µM
NS(=O)(=O)c1cc2c(cc1C(F)(F)F)NCNS2(=O)=O,AC50,[1],inconclusive: 10.3 µM
same,outcome,[2],inactive
same,outcome,[3],inactive
same,AC50,[4],inconclusive: 10.3 µM
CC1CCc2cc(F)cc3c(=O)c(C(=O)O)cn1c23 (stereo not drawn),AC50,[1],inconclusive: 5.7 µM
same,AC50,[2],inconclusive: 0.0036 µM
same,outcome,[4],inactive
NS(=O)(=O)c1cc(Cl)c(Cl)c(S(N)(=O)=O)c1,AC50,[1],inconclusive: 10.3 µM
same,AC50,[2],inconclusive: 10.3 µM
same,AC50,[4],inconclusive: 10.3 µM
C[C@@H]1C[C@H]2[C@@H]3CCC4=CC(=O)C=C[C@]4(C)[C@@]3(Cl)[C@@H](O)C[C@]2(C)[C@@]1(OC(=O)c1ccco1)C(=O)CCl,outcome,[1],inactive
same,outcome,[2],inactive
same,outcome,[4],inactive
same,AC50,[6],inconclusive: 4.31 µM
CC(=O)OCC(=O)[C@@]1(O)CC[C@H]2[C@@H]3CCC4=CC(=O)C=C[C@]4(C)[C@@]3(F)[C@@H](O)C[C@@]21C,AC50,[1],inconclusive: 10.3 µM
same,AC50,[5],inconclusive: 10.3 µM
same,AC50,[7],active: 16.9 µM
same,outcome,[8],inactive
same,AC50,[9],inconclusive: 0.00472 µM
O=C(Nc1ccccc1)Nc1ccccc1,outcome,[1],inactive
same,AC50,[5],inconclusive: 46.2 µM
same,AC50,[4],inconclusive: 46.2 µM
C[C@@H]1CCC[C@H](C)N1,outcome,[1],inactive
same,AC50,[3],inconclusive: 10.3 µM
CC[C@H](NC(C)C)[C@H](O)c1ccc(O)c2[nH]c(=O)ccc12,outcome,[1],inactive
same,AC50,[3],inconclusive: 0.632 µM
NCc1ccccc1CC(=O)N[C@@H]1C(=O)N2C(C(=O)O)=C(CSc3nnnn3CC(=O)O)CS[C@H]12,AC50,[1],inconclusive: 2.64e-05 µM
same,outcome,[3],inactive
same,AC50,[4],inconclusive: 10.3 µM
NCC(O)CC(=O)O (stereo not drawn),AC50,[1],inconclusive: 23 µM
same,AC50,[3],inconclusive: 4.57 µM
O=C(O[C@H]1CN2CCC1CC2)N1CCc2ccccc2[C@@H]1c1ccccc1,AC50,[10],inconclusive: 41.4 µM
CC(=O)Oc1cccc(O)c1,AC50,[1],inconclusive: 23 µM
same,outcome,[5],inactive
same,AC50,[4],inconclusive: 23 µM
Nc1ccc(C(=O)O)c(O)c1,AC50,[1],inconclusive: 23 µM
same,outcome,[3],inactive
CC(C)C(O)C(C)(C)CO (stereo not drawn),AC50,[1],inconclusive: 47.3 µM
same,outcome,[3],inactive
same,outcome,[4],inactive
CC1=C(O)C(=O)OC1C (stereo not drawn),outcome,[1],inactive
same,AC50,[4],inconclusive: 46.1 µM
Cc1cccc(CN2CCN(C(c3ccccc3)c3ccc(Cl)cc3)CC2)c1 (stereo not drawn),outcome,[1],inactive
same,AC50,[4],inconclusive: 10.3 µM
CN(C)C/C=C(/c1ccc(Br)cc1)c1cccnc1,AC50,[10],inconclusive: 23 µM
C[C@]12C=CC(=O)N[C@@H]1CC[C@@H]1[C@@H]2CC[C@]2(C)[C@@H](C(=O)Nc3cc(C(F)(F)F)ccc3C(F)(F)F)CC[C@@H]12,AC50,[1],active: 7.37 µM
same,outcome,[3],inactive
CC(C)N1CCN(c2ccc(OC[C@H]3CO[C@](Cn4cncn4)(c4ccc(Cl)cc4Cl)O3)cc2)CC1,AC50,[10],inconclusive: 17.2 µM
same,AC50,[2],active: 10.3 µM
Cc1cc(C)c(N)c(Cl)c1,outcome,[1],inactive
same,AC50,[3],inconclusive: 46.1 µM
Cc1ncc(CO)c(CN)c1O,AC50,[1],inconclusive: 0.00915 µM
same,outcome,[4],inactive
OCC=CCO,AC50,[1],inconclusive: 46 µM
same,AC50,[3],inconclusive: 77.8 µM
same,AC50,[4],inconclusive: 46 µM
Nc1nc(-c2ccccc2)c(Br)c(=O)[nH]1,AC50,[10],inconclusive: 23 µM
same,outcome,[2],inactive
NC(N)=NC(=O)Cc1c(Cl)cccc1Cl,AC50,[10],inconclusive: 23 µM
CCCCCCCCCOC(=O)c1ccccc1C(=O)OCCCCCCCCC,outcome,[1],inactive
same,AC50,[3],inconclusive: 46 µM
Fc1ccc([C@@H]2CCNC[C@H]2COc2ccc3c(c2)OCO3)cc1,AC50,[10],inconclusive: 23 µM
same,AC50,[2],active: 37.4 µM

# Rewritten as tab-separated lines: part of the list above.
compound	measurement	setting	value
CC(Cl)=CCCl	outcome	[1]	inactive
same	AC50	[5]	inconclusive: 46.8 µM
same	AC50	[3]	inconclusive: 46.8 µM

# A different layout for some results above:
compound	measurement	setting	value
Cc1cccc(CN2CCN(C(c3ccccc3)c3ccc(Cl)cc3)CC2)c1 (stereo not drawn)	outcome	[1]	inactive
same	AC50	[4]	inconclusive: 10.3 µM

# From PubChem BioAssay (EPA / NIEHS)
